No constants are given. Whether binding was seen depends on the method and setting. In cells and extracts the contact can be indirect. Binding can be weak; no strength is given. Where a sequence is shown, tags or fusion partners need not be part of it.

The chains behind the UniProt entries cited, without tags or fusion partners. Where a name states a change or a piece, a line headed by the entry shows the natural chain unless it says otherwise.
UniProt F1QNG2: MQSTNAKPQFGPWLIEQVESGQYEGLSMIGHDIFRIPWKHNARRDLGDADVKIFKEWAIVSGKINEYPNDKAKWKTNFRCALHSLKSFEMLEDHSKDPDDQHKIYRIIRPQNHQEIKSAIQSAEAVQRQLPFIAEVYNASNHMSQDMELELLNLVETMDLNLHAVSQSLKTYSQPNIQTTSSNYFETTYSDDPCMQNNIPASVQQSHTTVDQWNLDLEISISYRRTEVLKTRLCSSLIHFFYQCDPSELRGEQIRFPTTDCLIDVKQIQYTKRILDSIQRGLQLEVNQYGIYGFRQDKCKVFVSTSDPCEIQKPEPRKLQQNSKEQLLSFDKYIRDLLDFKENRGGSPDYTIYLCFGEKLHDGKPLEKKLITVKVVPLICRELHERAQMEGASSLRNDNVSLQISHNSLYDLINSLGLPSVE
UniProt A0ACM8QIE5: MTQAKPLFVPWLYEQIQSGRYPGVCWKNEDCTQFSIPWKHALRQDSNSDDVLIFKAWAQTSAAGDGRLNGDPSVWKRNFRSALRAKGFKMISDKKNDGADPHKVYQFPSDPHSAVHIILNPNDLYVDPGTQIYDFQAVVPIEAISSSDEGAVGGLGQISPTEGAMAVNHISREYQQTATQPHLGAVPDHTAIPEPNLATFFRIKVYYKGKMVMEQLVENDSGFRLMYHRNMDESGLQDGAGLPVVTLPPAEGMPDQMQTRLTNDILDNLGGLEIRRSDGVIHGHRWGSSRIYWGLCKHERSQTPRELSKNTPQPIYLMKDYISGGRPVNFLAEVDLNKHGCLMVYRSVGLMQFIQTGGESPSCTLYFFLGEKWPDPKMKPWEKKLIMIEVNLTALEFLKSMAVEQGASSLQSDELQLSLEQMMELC

The target in the assay is T1, zebrafish PLAAT1-GFP (zebrafish).
T1 sequence: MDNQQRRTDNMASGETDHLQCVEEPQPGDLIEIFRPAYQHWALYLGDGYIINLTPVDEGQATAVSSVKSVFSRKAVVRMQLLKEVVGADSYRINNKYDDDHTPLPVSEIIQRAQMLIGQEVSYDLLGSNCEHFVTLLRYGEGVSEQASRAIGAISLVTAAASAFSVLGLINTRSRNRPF
In words: co-IP; cells co-transfected (5 μg of each plasmid), lysed after 24 h in RIPA buffer with protease inhibitors; lysate incubated with α-GFP affinity gel at 4°C overnight, washed three times with ice-cold PBS; Western blotting.
For “IRF7-ΔDBD (zebrafish) (domain or fragment)”, the binding entry is given as “binds”.
To “IRF7-ΔIAD (zebrafish) (domain or fragment)” belongs “no binding”; to “zebrafish Myc-IRF7 (from UniProt F1QNG2)”, “binds”; to “IRF3-ΔIAD (zebrafish) (domain or fragment)”, “no binding”.
In the case of “IRF3-ΔDBD (zebrafish) (domain or fragment)”, the binding entry is listed as “binds”.
For “zebrafish Myc-IRF3 (from UniProt A0ACM8QIE5)”, the binding entry was “binds”.

These data come from article PMC9510373.
